Test results: paper doi:10.1101/551317
No constants are given. Whether binding was seen depends on the method and setting. Sequences can lack the tags named with a protein.

Experiments:
Assay in all cases: two-hybrid
[1] = molecular target: T1, REC8, yeast two-hybrid fusion (Arabidopsis thaliana) (UniProt Q9S7T7)
T1 sequence: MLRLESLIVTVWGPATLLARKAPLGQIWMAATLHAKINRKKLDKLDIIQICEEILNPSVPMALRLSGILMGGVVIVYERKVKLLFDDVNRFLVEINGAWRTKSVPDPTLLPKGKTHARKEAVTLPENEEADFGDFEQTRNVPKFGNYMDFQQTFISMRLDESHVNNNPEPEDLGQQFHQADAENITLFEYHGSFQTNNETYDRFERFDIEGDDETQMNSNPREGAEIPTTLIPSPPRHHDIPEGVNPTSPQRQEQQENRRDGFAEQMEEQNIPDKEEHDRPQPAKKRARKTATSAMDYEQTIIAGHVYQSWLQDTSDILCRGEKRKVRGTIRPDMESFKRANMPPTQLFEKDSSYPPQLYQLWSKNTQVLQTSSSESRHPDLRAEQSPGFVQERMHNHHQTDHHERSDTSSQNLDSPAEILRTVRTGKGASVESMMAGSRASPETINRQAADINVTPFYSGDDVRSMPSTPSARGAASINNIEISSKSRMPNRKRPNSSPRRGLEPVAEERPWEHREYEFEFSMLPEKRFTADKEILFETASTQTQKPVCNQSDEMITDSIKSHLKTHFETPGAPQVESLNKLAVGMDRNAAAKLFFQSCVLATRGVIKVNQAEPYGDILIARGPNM

[2] = molecular target: T2, SMC3, yeast two-hybrid fusion (Arabidopsis thaliana) (UniProt Q56YN8)
T2 sequence: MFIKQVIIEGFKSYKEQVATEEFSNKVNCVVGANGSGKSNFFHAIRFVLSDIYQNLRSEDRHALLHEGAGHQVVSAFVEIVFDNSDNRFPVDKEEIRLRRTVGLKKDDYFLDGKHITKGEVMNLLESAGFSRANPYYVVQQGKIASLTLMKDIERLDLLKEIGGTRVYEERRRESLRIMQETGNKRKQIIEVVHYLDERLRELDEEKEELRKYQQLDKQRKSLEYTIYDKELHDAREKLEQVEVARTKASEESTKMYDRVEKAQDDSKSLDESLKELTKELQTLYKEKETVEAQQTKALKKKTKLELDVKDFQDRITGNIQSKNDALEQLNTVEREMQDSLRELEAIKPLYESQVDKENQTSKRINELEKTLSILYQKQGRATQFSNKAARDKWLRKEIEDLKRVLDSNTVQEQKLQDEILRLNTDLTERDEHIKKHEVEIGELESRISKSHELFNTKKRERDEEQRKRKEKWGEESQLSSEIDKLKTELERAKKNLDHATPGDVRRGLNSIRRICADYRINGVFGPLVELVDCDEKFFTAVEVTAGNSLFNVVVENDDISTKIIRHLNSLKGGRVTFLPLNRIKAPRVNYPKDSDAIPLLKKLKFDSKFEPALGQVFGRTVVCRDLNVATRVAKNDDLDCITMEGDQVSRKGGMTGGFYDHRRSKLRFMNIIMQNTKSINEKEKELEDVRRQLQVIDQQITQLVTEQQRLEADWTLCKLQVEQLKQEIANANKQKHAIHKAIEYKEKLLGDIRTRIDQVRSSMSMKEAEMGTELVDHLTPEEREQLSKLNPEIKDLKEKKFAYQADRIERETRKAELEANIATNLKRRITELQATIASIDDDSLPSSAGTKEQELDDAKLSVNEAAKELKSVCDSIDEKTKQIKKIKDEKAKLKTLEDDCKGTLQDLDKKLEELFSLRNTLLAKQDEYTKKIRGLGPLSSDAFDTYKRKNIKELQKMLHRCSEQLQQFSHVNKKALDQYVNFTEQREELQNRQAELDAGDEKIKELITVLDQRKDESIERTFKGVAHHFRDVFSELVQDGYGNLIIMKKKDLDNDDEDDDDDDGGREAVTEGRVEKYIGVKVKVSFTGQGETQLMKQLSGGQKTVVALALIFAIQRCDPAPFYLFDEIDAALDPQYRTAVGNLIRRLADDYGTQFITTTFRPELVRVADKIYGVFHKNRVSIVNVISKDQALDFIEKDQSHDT

[3] = molecular target: T3, SCC3, yeast two-hybrid fusion (Arabidopsis thaliana) (UniProt O82265)
T3 sequence: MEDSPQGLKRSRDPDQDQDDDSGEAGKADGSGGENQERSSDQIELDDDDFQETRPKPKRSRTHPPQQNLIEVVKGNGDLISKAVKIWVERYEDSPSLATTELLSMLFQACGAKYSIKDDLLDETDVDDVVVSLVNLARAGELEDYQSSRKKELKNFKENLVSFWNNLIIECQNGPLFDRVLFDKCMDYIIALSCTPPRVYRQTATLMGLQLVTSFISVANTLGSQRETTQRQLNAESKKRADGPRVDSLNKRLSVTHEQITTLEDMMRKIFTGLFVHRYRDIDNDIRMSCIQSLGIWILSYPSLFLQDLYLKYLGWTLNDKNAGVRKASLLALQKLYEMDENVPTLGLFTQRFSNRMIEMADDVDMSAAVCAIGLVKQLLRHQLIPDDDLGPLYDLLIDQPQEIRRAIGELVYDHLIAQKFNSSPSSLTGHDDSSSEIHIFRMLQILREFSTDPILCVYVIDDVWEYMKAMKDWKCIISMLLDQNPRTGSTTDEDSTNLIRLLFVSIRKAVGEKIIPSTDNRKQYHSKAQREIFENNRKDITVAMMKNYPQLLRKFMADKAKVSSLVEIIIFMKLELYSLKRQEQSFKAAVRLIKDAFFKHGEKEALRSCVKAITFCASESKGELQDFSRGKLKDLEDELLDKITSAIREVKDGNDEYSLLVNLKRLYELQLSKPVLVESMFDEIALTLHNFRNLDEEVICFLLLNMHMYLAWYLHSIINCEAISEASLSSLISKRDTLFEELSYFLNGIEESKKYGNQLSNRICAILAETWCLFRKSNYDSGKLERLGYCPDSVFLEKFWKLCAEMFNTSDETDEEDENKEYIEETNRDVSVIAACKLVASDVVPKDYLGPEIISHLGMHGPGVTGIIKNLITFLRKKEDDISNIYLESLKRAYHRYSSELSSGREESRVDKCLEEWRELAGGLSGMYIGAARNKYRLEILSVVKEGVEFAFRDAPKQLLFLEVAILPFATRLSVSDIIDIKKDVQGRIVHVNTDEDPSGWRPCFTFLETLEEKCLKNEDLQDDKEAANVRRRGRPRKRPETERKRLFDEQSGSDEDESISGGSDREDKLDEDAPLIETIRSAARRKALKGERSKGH

binding [1]: no binding
binding [2]: no binding
binding [3]: no binding
B1: SWITCH 1/DYAD (SWI1), yeast two-hybrid fusion (protein, UniProt Q9FGN8 1-639)
chain: MSSTMFVKRNPIRETTAGKISSPSSPTLNVAVAHIRAGSYYEIDASILPQRSPENLKSIRVVMVSKITASDVSLRYPSMFSLRSHFDYSRMNRNKPMKKRSGGGLLPVFDESHVMASELAGDLLYRRIAPHELSMNRNSWGFWVSSSSRRNKFPRREVVSQPAYNTRLCRAASPEGKCSSELKSGGMIKWGRRLRVQYQSRHIDTRKNKEGEESSRVKDEVYKEEEMEKEEDDDDGNEIGGTKQEAKEITNGNRKRKLIESSTERLAQKAKVYDQKKETQIVVYKRKSERKFIDRWSVERYKLAERNMLKVMKEKNAVFGNSILRPELRSEARKLIGDTGLLDHLLKHMAGKVAPGGQDRFMRKHNADGAMEYWLESSDLIHIRKEAGVKDPYWTPPPGWKLGDNPSQDPVCAGEIRDIREELASLKRELKKLASKKEEEELVIMTTPNSCVTSQNDNLMTPAKEIYADLLKKKYKIEDQLVIIGETLRKMEEDMGWLKKTVDENYPKKPDSTETPLLLEDSPPIQTLEGEVKVVNKGNQITESPQNREKGRKHDQQERSPLSLISNTGFRICRPVGMFAWPQLPALAAATDTNASSPSHRQAYPSPFPVKPLAAKRPLGLTFPFTIIPEEAPKNLFNV
